# Hit rate of the full screen: of about 330,000 compounds, about 7,700 (2.3%) were called active. This list was built around the results that the source calls inconclusive (neither active nor inactive); the mix of calls is not that of the screen. Calls come from the whole dose curve; as a rule, active = well fitted inhibition curve with a large enough effect; inconclusive = small, poorly fitted or top-dose-only effect, or effect the other way; inactive = flat fitted curve, though single readings scatter. Potencies beside an inconclusive call are fits to weak or partial responses and may not hold up.
# Experiment: qHTS screen for small molecules that inhibit ELG1-dependent DNA repair in human embryonic kidney (HEK293T) cells expressing luciferase-tagged ELG1; note: nearly all actives have a fitted effect of over 55% in size
# Conditions: HEK293T ELG1-luciferase reporter, luminescence, 16 h, DNA damage induced by 5-fluorouridine; series mostly up to 46.1 µM
# Summary of the method: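 Reporter activity after DNA damage by 5-fluorouridine is monitored. Compound-treated cells incubate 16 hr at 37 °C, then ONE-Glo is added for 30 min before luminescence reading.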
# Potency is the fitted concentration of half-maximal effect.
row,SMILES,Potency
1,Cc1cc(C)cc(-n2ncc3c2CCCC3NC(=O)c2cc(C)[nH]n2)c1 (centres undefined),"inconclusive: 29.1 µM [activator, single point]"
2,CC(C)C(=O)Nc1ccc([N+](=O)[O-])c(C(F)(F)F)c1,inactive
3,O=C(Nc1ccc(S(=O)(=O)N2CCCC2)cc1)c1ccc([N+](=O)[O-])o1,"inconclusive: 4.61 µM [inhibitor, partial curve, poor fit]"
4,COc1ccc(-n2c(O)c(/C=N/NS(=O)(=O)c3cc(C)ccc3C)c3ccccc3c2=O)cc1OC,inactive
5,CCc1c(C)nc2ncnn2c1N1CCC(C(=O)N2CCN(c3ccc(F)cc3)CC2)CC1,active: 23.1 µM
6,Cc1ccc(CNC(=O)C23CN(Cc4ccccc4)CC2C(c2ccc([N+](=O)[O-])cc2)=NO3)cc1 (centres undefined),"inconclusive: 13 µM [inhibitor, partial curve, poor fit]"
7,Cc1nn(-c2ccccc2)c(Cl)c1/C=C/C(=O)c1ccccc1,"inconclusive: 14.6 µM [activator, partial curve]"
8,O=C(NC1CCN(Cc2ccccc2)CC1)c1ccc(Cl)cc1Cl,inactive
9,O=C(NNC(=O)c1ccccc1F)C1=NN(c2ccccc2)C(=O)CC1,inactive
10,C=CCn1c(CCCOc2ccc(Cl)cc2Cl)n[nH]c1=S,inactive
11,Cc1nn(-c2ccc([N+](=O)[O-])cc2)c2c1C(c1ccc(OC(F)F)cc1)N1C(=N2)C(=O)Nc2ccccc21 (centres undefined),"inconclusive: 7.3 µM [inhibitor, partial curve]"
12,COc1ccccc1OCC(=O)Nc1ccc(N2CCCCC2)cc1,inactive
13,C(=C\c1ccco1)/C1=NN(c2ccccc2)C(c2ccco2)C1 (centres undefined),"inconclusive: 16.4 µM [activator, partial curve, poor fit]"
14,CCOC(=O)C1CCN(c2nc3cc(OC)ccc3cc2C#N)CC1,"inconclusive: 29.1 µM [inhibitor, single point]"
15,COc1ccc(CCN2C(=O)CS/C2=N/NC(=O)c2ccccc2F)cc1OC,inactive
16,OCCc1ccc(-c2ccc(Cl)cc2)o1,"inconclusive: 11.6 µM [activator, partial curve]"
17,CCc1ccc2oc(-c3cccc(N)c3)nc2c1,"inconclusive: 1.84 µM [activator, partial curve]"
18,c1ccc(-c2ccc(CN3C[C@@H]4C(c5ccccc5)C5(c6cccnc6)CC4(C5)[C@H]3c3ccccc3)cc2)cc1 (some centres undefined),"inconclusive: 18.3 µM [inhibitor, partial curve, poor fit]"
19,CN(C)S(=O)(=O)c1cccc(N=c2scc(-c3ccc4c(c3)NC(=O)CO4)n2CC2CCCO2)c1 (centres undefined),active: 23.1 µM
20,Cn1ccsc1=NC(=O)c1ccc(Cl)cc1,"inconclusive: 18.3 µM [activator, partial curve]"
21,Cc1ccc(OCC(=O)Oc2cccc(C)c2C)cc1,inactive
22,O=C1COc2ccc(S(=O)(=O)N3CCN(c4cccc(C(F)(F)F)c4)CC3)cc2N1,"inconclusive: 14.6 µM [activator, partial curve, poor fit]"
23,CN1c2ccsc2/C(=N/Nc2ccc(F)cc2)CS1(=O)=O,"inconclusive: 9.2 µM [activator, partial curve]"

# In the list so far, these contain four or more nitrogen atoms.
row,SMILES,Potency
1,Cc1cc(C)cc(-n2ncc3c2CCCC3NC(=O)c2cc(C)[nH]n2)c1 (centres undefined),"inconclusive: 29.1 µM [activator, single point]"
5,CCc1c(C)nc2ncnn2c1N1CCC(C(=O)N2CCN(c3ccc(F)cc3)CC2)CC1,active: 23.1 µM
6,Cc1ccc(CNC(=O)C23CN(Cc4ccccc4)CC2C(c2ccc([N+](=O)[O-])cc2)=NO3)cc1 (centres undefined),"inconclusive: 13 µM [inhibitor, partial curve, poor fit]"
9,O=C(NNC(=O)c1ccccc1F)C1=NN(c2ccccc2)C(=O)CC1,inactive
11,Cc1nn(-c2ccc([N+](=O)[O-])cc2)c2c1C(c1ccc(OC(F)F)cc1)N1C(=N2)C(=O)Nc2ccccc21 (centres undefined),"inconclusive: 7.3 µM [inhibitor, partial curve]"
19,CN(C)S(=O)(=O)c1cccc(N=c2scc(-c3ccc4c(c3)NC(=O)CO4)n2CC2CCCO2)c1 (centres undefined),active: 23.1 µM

# Continuation.

row,SMILES,Potency
1,Cc1cc(C)nc(/N=C(/NC(=O)Nc2cccc(Cl)c2)Nc2ccccc2)n1,inactive
2,CCOC(=O)CN1C(=O)C(C)(C)Oc2ccc(C(=O)NC(C)(C)CC)cc21,"inconclusive: 14.6 µM [inhibitor, partial curve, poor fit]"
3,CN(C(=O)COC(=O)c1cnc(Cl)c(Cl)c1)C1CCCCC1,"inconclusive: 29.1 µM [activator, single point]"
4,CC(C)=C[C@@H]1C[C@H](C)[C@H]2CC[C@H](C)c3c(O)c(O)c(C)c1c32,inactive
5,COc1ccc(C)cc1S(=O)(=O)Nc1cc2c3c(c1)CCN3C(=O)CC2,"inconclusive: 11.6 µM [activator, partial curve]"
6,Nc1c(C(=O)N2CCCC2)sc2nc3c(cc12)CCCCCC3,"inconclusive: 2.91 µM [activator, partial curve]"
7,COc1cc(SC)ccc1C(=O)Nc1ccc(C)cc1C,"inconclusive: 9.2 µM [activator, partial curve]"
8,CN1CCN(S(=O)(=O)c2cccc(C(=O)NCc3ccccc3Cl)c2)CC1,inactive
9,Cc1ccc(N2CCN(C(=O)c3cc(-c4ccc(F)cc4)[nH]c3C)CC2C)cc1 (centres undefined),"inconclusive: 23.1 µM [inhibitor, partial curve, poor fit]"
10,CCOC(=O)c1cnc2c(-c3ccccc3OC)c(C)nn2c1C,"inconclusive: 16.4 µM [inhibitor, single point]"
11,CCCc1cc(C(=O)Nc2cccnc2Cl)no1,"inconclusive: 20.6 µM [activator, partial curve]"
12,CC(C)CC(COCc1cccc(Cl)c1)N1CCN(C(=O)c2ccc(C(F)(F)F)cc2)CCC1=O (centres undefined),"inconclusive: 18.4 µM [inhibitor, partial curve, poor fit]"
13,O=C(N/N=C\C=C\c1ccc([N+](=O)[O-])o1)c1cccs1,inactive
14,CC(=O)n1c(C=Nc2ccccc2)c(O)c2ccccc21,"inconclusive: 18.3 µM [activator, partial curve]"
15,COc1cccc(-n2cc3c(c2-c2ccccc2)c(=O)n(C)c(=O)n3C)c1,"inconclusive: 23.1 µM [inhibitor, partial curve, poor fit]"
16,CN(c1ccccc1)S(=O)(=O)c1ccc(C(=O)NCc2ccccn2)cc1,"inconclusive: 0.0651 µM [inhibitor, full curve, poor fit]"
17,CCN(CC)CCNc1nc(-c2ccco2)c2c(c1C#N)CC(C)(C)OC2,inactive
18,Cc1cc(C)c2[nH]c(=O)c(CN(CC3CCCO3)C(=S)Nc3ccccc3)cc2c1 (centres undefined),inactive
19,CCC(=O)/C=C1/Sc2ccc(OC)cc2N1CC,"inconclusive: 23.1 µM [inhibitor, partial curve]"
20,CCOc1ccc(NC(=O)CSc2nnc(C)n2C2CC2)cc1S(=O)(=O)N1CCCC1,"inconclusive: 20.6 µM [activator, partial curve, poor fit]"
21,O=C(C1=NN[C@@H]2C(=O)N(c3cccc(F)c3)C(=O)[C@H]12)c1ccc2ccccc2n1,"inconclusive: 20.6 µM [activator, partial curve, poor fit]"
22,CSC1=NSC2=NC(=O)/C(=C\c3ccc(OC(=O)c4ccco4)cc3)C(=N)N12,"inconclusive: 20.6 µM [activator, partial curve]"
23,CCn1cc(Br)c(C(=O)Nc2ccc(Cl)c(Cl)c2)n1,"inconclusive: 16.4 µM [activator, partial curve]"

row,SMILES,Potency
1,CC(=O)Nc1nnc(-c2ccco2)o1,inactive
2,OC1CCN(CC(O)C(F)(F)F)CC1 (centres undefined),inactive
3,COc1ccc(C(O)Cn2ccsc2=NC(C)=O)cc1 (centres undefined),inactive
4,CCc1cc(C(=O)c2ccc(OC)cc2)c(NC(=O)COCC(=O)O)s1,inactive
5,CCOC(=O)C1=C(C)NC(C)=C(C(=O)OCC)C1c1cc2ccc(C)cc2[nH]c1=O,inactive
6,CC(=C\c1ccco1)/C=C1/SC(=S)N(CC(=O)O)C1=O,"inconclusive: 18.3 µM [activator, single point]"
7,Cc1ccc(S(=O)(=O)Nc2cccc(C(=O)N3CCC(C(N)=O)CC3)c2)cc1,inactive
8,CCCC(=O)Nc1cc(C)c(NC(=O)c2ccccn2)cn1,"inconclusive: 20.6 µM [activator, partial curve]"
9,CCOc1cc2[nH]c(=S)n(C3CC3)c(=O)c2cc1OCC,"inconclusive: 29.1 µM [inhibitor, single point]"
10,CC(C)c1nc2sc(C(=O)O)c(N)c2c2c1CCCC2,"inconclusive: 20.6 µM [inhibitor, single point]"
11,CCN1C(=O)[C@H]2[C@@H](c3ccc(-c4ccc(F)cc4)c(OC)c3)N3CCCC[C@@]3(C(=O)OC)[C@H]2C1=O,inactive
12,CC1CCN(C(=O)Cn2nnc(-c3cccs3)n2)CC1,"inconclusive: 18.3 µM [activator, partial curve]"
13,O=C(/C=C/c1ccccc1)Nc1cccc(S(=O)(=O)Nc2ccccc2F)c1,inactive
14,CCCCN1C[C@H](Cc2ccccc2)[C@@H](CC(=O)NCc2ccc(OC)cc2)C1=O,inactive
15,Cc1ccc(CSc2nc3c(c(=O)[nH]c(=O)n3C)n2CCC(C)C)cc1,"inconclusive: 29.1 µM [inhibitor, single point]"
16,O=C(CN1C2CCCC1CC(NC(=O)c1ccccc1)C2)Nc1ccccc1C(F)(F)F (centres undefined),"inconclusive: 29.1 µM [inhibitor, single point]"
17,Cc1ccnn1CC(=O)N/N=C/c1ccc([N+](=O)[O-])s1,active: 13 µM
18,CC(CN1C(C)CCCC1C)OC(=O)c1ccccc1Cl (centres undefined),"inconclusive: 23.1 µM [inhibitor, partial curve, poor fit]"
19,Cc1ccc(-c2nc3nc4ccccc4nc3n2Cc2ccco2)cc1,"inconclusive: 4.61 µM [activator, partial curve]"
20,CCNS(=O)(=O)c1cccc(C(=O)c2c(C)cc3ccccn23)c1,"inconclusive: 18.4 µM [inhibitor, single point]"
21,Cn1c(=O)[nH]c(=O)c2c1nc(N1CCCCC1)n2CCCSc1nc2ccccc2s1,active: 20.6 µM
22,C=CCOc1ccc2cccc(/C=N/NC(=O)c3cc4cc([N+](=O)[O-])ccc4s3)c2c1,"inconclusive: 1.16 µM [inhibitor, single point]"
23,C#CCSc1nnc(-c2sc3ccccc3c2Cl)o1,"inconclusive: 18.4 µM [activator, partial curve]"

# — PubChem BioAssay AID504467 (National Center for Advancing Translational Sciences (NCATS), 2011)
